In publication PMC12320503:
No constants are given. Whether binding was seen depends on the method and setting. In cells and extracts the contact can be indirect. Some binding calls cover weakened binding; strength is not graded here. Tags and fused reporters may be left off the sequences shown.

Molecular target: T1, Flag-tagged SIRT4, transfected into HEK293T cells (UniProt Q8R216)
T1 sequence: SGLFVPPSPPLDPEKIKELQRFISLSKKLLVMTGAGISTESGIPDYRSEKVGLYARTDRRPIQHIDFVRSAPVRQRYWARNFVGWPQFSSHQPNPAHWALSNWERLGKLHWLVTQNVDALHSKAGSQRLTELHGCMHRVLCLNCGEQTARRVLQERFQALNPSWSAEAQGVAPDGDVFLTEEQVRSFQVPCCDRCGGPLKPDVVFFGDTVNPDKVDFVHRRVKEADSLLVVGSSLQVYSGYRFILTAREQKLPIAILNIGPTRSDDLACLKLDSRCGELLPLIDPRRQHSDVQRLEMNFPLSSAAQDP
Test: co-IP; Flag-tagged SIRT4 and HA-tagged PRDX3 plasmids cotransfected into HEK293T cells; IP lysis buffer, primary antibody and protein A+G agarose beads overnight at 4°C, immunoblot

B1: HA-tagged PRDX3, transfected into HEK293T cells (protein, UniProt P20108 63-257)
chain: TPAVTQHAPYFKGTAVVNGEFKELSLDDFKGKYLVLFFYPLDFTFVCPTEIVAFSDKANEFHDVNCEVVAVSVDSHFSHLAWINTPRKNGGLGHMNITLLSDITKQISRDYGVLLESAGIALRGLFIIDPNGVVKHLSVNDLPVGRSVEETLRLVKAFQFVETHGEVCPANWTPESPTIKPSPTASKEYFEKVHQ
binding: binds
